Among the data in PubChem BioAssay AID493014 (National Center for Advancing Translational Sciences (NCATS), 2011) are AC50 values, retold here.

Each structure is given as a SMILES string. Some of the results follow. Further columns of the screen follow, without active or inactive calls. Compounds called inactive in the main read-out are mostly missing here. Words in brackets tell the shape of the fitted curve; partial curves, single points and poor fits give uncertain potencies.

What is called AC50 is the midpoint of the concentration-response curve, whichever way the signal moves.

The assay can be described thus: qHTS Assay to Find Inhibitors of Chronic Active B-Cell Receptor Signaling. The conditions noted are these: ABC-DLBCL IkBa-CBG/CBR reporter, luminescence ratio (green luciferase fused to IkBa over red control in TMD8 lymphoma cells), 4 h. In outline: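 Concentration-response series (up to 46 uM) were applied to TMD8 dual-reporter cells for 4 h at 37C with doxycycline. Green/red ratio, after filter-overlap correction, defined %Activity; red signal alone was normalised to basal cells and zero luminescence.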

Setting [1] is: measured here: CBR red luminescence, cell number.
Setting [2] is: measured here: IkBa-CBG green luminescence.

On to `N#Cc1c(NC(=O)CS(=O)(=O)c2ccc(Cl)cc2)sc2c1CCCCC2`, for which the AC50 under setting [1] is 6.31 µM [falling, single point]. The same measure, in the same setting: the result for `CC(CC(=O)Nc1nc2ccccc2[nH]1)n1ccnc1` (configuration not stated) reads 12.6 µM [falling, partial curve, poor fit]; that for `COCCn1c(=O)[nH]c2cc(C(=O)NCCc3ccc(OC)c(OC)c3)ccc2c1=O`, 0.708 µM [falling, full curve, poor fit]; that for `O=C(COc1ccc(-n2ccnc2)cc1)Nc1cccc(Cl)c1`, 2.24 µM [rising, partial curve, poor fit]. Regarding `O=S(=O)(NC1CCCCCC1)c1ccc(Br)s1`, the AC50 under setting [2] was 16.4 µM [rising, partial curve, poor fit]. On to `COc1cccc(C2=CC(c3ccc(OC)c(OC)c3)NC(=S)N2)c1` (configuration not stated), for which, under setting [1], the AC50 is 7.94 µM [falling, partial curve, poor fit].

`Cc1cccc(C(=O)NC2CCN(C(=O)Nc3ccccc3C)CC2)c1`: under setting [1], the AC50 was 14.1 µM [rising, partial curve, poor fit]. As to `Cc1csc(C2=C(O)CN(CCc3ccccc3)C2=N)n1`, under setting [1], the AC50 is 2.51 µM [rising, partial curve, poor fit]. On the same count and under the same terms, the result for `COC(=O)c1ccc(-n2c(C)cc(C(=O)CCl)c2C)cc1` reads 11.2 µM [falling, partial curve, poor fit]; that for `CCOc1ccc(Cc2noc3c2C(=O)CC(C)(C)C3)cc1OCC`, 3.16 µM [rising, partial curve, poor fit]; that for `Cc1cc(Cl)ccc1C1=CC(=O)C[C@H](c2ccc(F)cc2)C1`, 6.51 µM [rising, single point]. The same measure, in the same setting: to `O=C(Nc1ccc(Cl)cc1)N1CCCC(Cn2cccc2)C1` (configuration not stated) belongs 3.98 µM [rising, partial curve, poor fit]; to `O=C(O)c1ccccc1-c1noc(-c2ccccc2F)n1`, 18.4 µM [falling, single point]. Consider `Cc1ccc2nc(NCCc3ccccc3)c3nncn3c2c1`, for which, under setting [1], the AC50 was 0.355 µM [rising, full curve, poor fit].

Consider `Cc1ccc2nc(N(CCCN(C)C)C(=O)c3cc(-c4cccs4)nc4ccccc34)sc2c1`, for which, under setting [1], the AC50 is 35.5 µM [falling, single point]. Same read-out and setting: the result for `Cn1c2ccccc2c(=O)c2c(=O)n(C3CCCCC3)c(-c3cccs3)nc21` reads 20.6 µM [rising, partial curve, poor fit].

For the compound `C/C(=N\N=C1\NC(=O)C(CC(=O)Nc2ccc(C)c(Cl)c2)S1)C(C)C` (configuration not stated), under setting [1], the AC50 is 12.6 µM [falling, single point]. On the same count and under the same terms, the result for `Clc1ccc(Br)cc1-c1nc(-c2ccncc2)no1` reads 1.03 µM [rising, full curve, poor fit]. Consider `Cc1ccc2c(c1)C(=O)C(=O)N2Cc1ccc(C(F)(F)F)cc1`, for which the AC50 runs as follows: under setting [1], 13 µM [rising, single point]; under setting [2], 16.4 µM [falling, single point]. With `CC(C)c1ccc(OCc2cccc(C(=O)N/N=C/c3cccnc3)c2)cc1`, under setting [1], the AC50 was 0.184 µM [rising, full curve, poor fit]. On the same count and under the same terms, to `CN(c1ccc(C(=O)Nc2ccc3c(c2)n(C)c(=O)n3C)cc1)S(C)(=O)=O` belongs 35.5 µM [rising, partial curve, poor fit]; to `Nc1cc(-c2ccccc2)nn1S(=O)(=O)c1ccc(Br)cc1`, 8.2 µM [falling, partial curve, poor fit]; to `CCOc1ccc2oc(-c3ccccc3)c(C(=O)N(C)C)c2c1`, 3.66 µM [falling, single point]. The same measure, in the same setting: the result for `CN(C)CCCN1C(=O)C(=O)/C(=C(/O)c2ccncc2)C1c1cccc(Br)c1` (configuration not stated) reads 3.26 µM [rising, single point]; that for `Cc1[nH]c2ccccc2c1C(=O)C(=O)N1CCN(c2ccccc2)CC1`, 3.98 µM [rising, partial curve, poor fit].

For `COc1ccc(/C=C/C2=CC(C)(C)NC(=S)N2)cc1`, the AC50 under setting [1] is 12.6 µM [falling, single point]. Take `CN(CC1COc2ccccc2O1)C(=S)Nc1ccccc1F` (configuration not stated): the AC50 under setting [1] was 2.91 µM [rising, partial curve, poor fit]. Same read-out and setting: the result for `Cc1ccc2nc(SCCC#N)nc(C)c2c1` reads 23.1 µM [falling, single point]; that for `COc1cccc(NC(=O)NCCc2ccc(Cl)cc2)c1`, 15.8 µM [falling, single point]. The same measure, in the same setting: to `O=S(=O)(Nc1ncnc2sc3c(c12)CCC3)c1ccc2ccccc2c1` belongs 7.31 µM [falling, partial curve, poor fit]; to `CCOc1ccccc1NC(=O)NC1CC2CCCC(C1)N2Cc1nnnn1CCc1ccccc1` (configuration not stated), 2.06 µM [falling, single point].

As to `Cc1cccc(OCCN2C(=O)C(=O)c3cc(C)ccc32)c1`, the AC50 is, setting by setting: under setting [1], 11.2 µM [rising, partial curve]; under setting [2], 10 µM [falling, partial curve].

For `Cc1cnc(NC(=O)c2ccco2)s1`, under setting [1], the AC50 was 35.5 µM [falling, single point]. On the same count and under the same terms, to `CCOc1ccc(NC(=O)NCc2cccnc2)cc1` belongs 6.31 µM [rising, single point]; to `Cc1ccc2nsnc2c1S(=O)(=O)N1CCCC1`, 12.6 µM [rising, single point]. Still for that read-out and setting: to `O=C1CC(N(CCc2ccccc2)C(=S)Nc2cc(Cl)ccc2Cl)C(=O)N1c1c(Cl)cccc1Cl` (configuration not stated) belongs 7.08 µM [falling, partial curve]; to `O=Cc1cn(-c2ccccc2)nc1-c1cc2ccccc2oc1=O`, 7.31 µM [rising, partial curve, poor fit]. Same read-out and setting: to `Cc1onc(-c2ccccc2)c1C(=O)N1CC(C)OC(C)C1` (configuration not stated) belongs 25.1 µM [rising, single point]. As to `Cc1ccc(NC(=O)c2cc(S(=O)(=O)N3CCOCC3)cn2C)cc1F`, the AC50 under setting [1] is 7.08 µM [falling, partial curve, poor fit]. Same read-out and setting: the result for `CCOc1cnn(-c2ccccc2)c(=O)c1Cl` reads 3.16 µM [falling, partial curve].

On to `CC(C)OC(=O)c1cc(C(=O)c2cc(F)ccc2O)coc1=N`, for which, under setting [1], the AC50 was 7.31 µM [falling, partial curve, poor fit]. Same read-out and setting: the result for `Cn1nc(C(=O)Nc2nc(-c3ccccn3)cs2)c2ccccc2c1=O` reads 0.082 µM [rising, full curve, poor fit]; that for `Cc1ccccc1C(=O)NNC(=O)C(=O)Nc1cccc(Cl)c1C`, 25.1 µM [falling, partial curve, poor fit]. Consider `O=C(/C=C/c1cccs1)Nc1ccc([N+](=O)[O-])cc1`, for which, under setting [1], the AC50 is 0.366 µM [rising, full curve].

`Cc1csc(NC(=O)C2COc3ccccc3O2)n1` (configuration not stated): the AC50 under setting [1] was 0.00461 µM [rising, full curve, poor fit].

For the compound `COc1ccc(Cc2nnc(SC(C)C(=O)Nc3ccc(C(N)=O)cc3)o2)cc1` (configuration not stated), the AC50 under setting [1] was 13 µM [rising, partial curve]. The same measure, in the same setting: to `CS(=O)(=O)N(CC(=O)Nc1ccc(S(=O)(=O)N2CCOCC2)cc1)c1ccccc1Br` belongs 8.91 µM [rising, partial curve, poor fit]; to `O=C(CN(c1ccc(Cl)c(Cl)c1)S(=O)(=O)c1ccccc1)N1CCc2ccccc2C1`, 22.4 µM [falling, single point]. The same measure, in the same setting: the result for `c1ccc(C2CC(c3cccs3)=NN2c2ccccc2)cc1` (configuration not stated) reads 22.4 µM [rising, single point]. On the same count and under the same terms, to `CCCCC(CC)CN=C(N)NC(N)=NCCCCCCN=C(N)NC(N)=NCC(CC)CCCC` (configuration not stated) belongs 29.1 µM [falling, single point]; to `CCCCCCCC(=O)N/N=C/c1ccco1`, 10 µM [rising, partial curve]. Take `COc1ccc(/C=C/C(=O)NCC(=O)N/N=C/c2cc(Br)ccc2OCc2ccccc2)cc1`: the AC50 under setting [1] is 4.61 µM [rising, partial curve, poor fit].

`O=C(CSc1nc2ccccc2[nH]1)N=Nc1c(O)[nH]c2ccccc12`: the AC50 under setting [1] was 29.1 µM [falling, single point]. As to `Cc1ccc(/C=N\NC(=O)C2COc3cc4ccccc4cc3O2)o1` (configuration not stated), the AC50 under setting [1] was 17.8 µM [falling, partial curve, poor fit].

For the compound `O=C(Nc1cccc(-c2ccc(N3CCOCC3)nn2)c1)c1ccc([N+](=O)[O-])cc1`, the AC50 under setting [1] was 36.6 µM [falling, single point]. Same read-out and setting: the result for `N/C(=N\OC(=O)CC1CCCCC1)c1cccnc1` reads 3.98 µM [rising, partial curve, poor fit]. The same measure, in the same setting: to `COc1ccc2nc(SCc3ccccc3)nc(C)c2c1` belongs 18.4 µM [rising, single point]; to `S=C(NCc1ccco1)N1CCN(C/C=C/c2ccccc2)CC1`, 35.5 µM [falling, single point]; to `Cc1ccc(-n2[nH]c(C)c(C=Nc3ccc(S(=O)(=O)Nc4nccs4)cc3)c2=O)cc1`, 23.1 µM [falling, single point]. On the same count and under the same terms, the result for `CCc1ccc(-n2c(SCc3cccc(F)c3)nc3[nH]ncc3c2=O)cc1` reads 35.5 µM [falling, single point]; that for `Cc1n[nH]c(=S)n(/N=C/c2ccccn2)c1=O`, 3.55 µM [falling, single point].

Consider `O=C(CN1CCCCCC1)Nc1ccccc1F`, for which the AC50 under setting [1] is 0.461 µM [rising, full curve, poor fit]. The same measure, in the same setting: the result for `O=C(CNC(=O)c1ccccc1F)OCC(=O)N1CCCCC1` reads 18.4 µM [rising, single point]; that for `CSc1ccccc1-c1nnc(-c2ccc(Cl)cc2Cl)o1`, 1.78 µM [rising, partial curve, poor fit]; that for `CC(=O)c1cccc(NC(=O)C(C)OC(=O)c2ccc(Br)o2)c1` (configuration not stated), 29.1 µM [rising, single point].
